# Measured values from PubChem BioAssay (NCATS).
# By UniProt entry, the sequences of proteins in these tests, tags left out. Where a name states a change or a piece, a line headed by the entry shows the natural chain unless it says otherwise.
# UniProt O15648: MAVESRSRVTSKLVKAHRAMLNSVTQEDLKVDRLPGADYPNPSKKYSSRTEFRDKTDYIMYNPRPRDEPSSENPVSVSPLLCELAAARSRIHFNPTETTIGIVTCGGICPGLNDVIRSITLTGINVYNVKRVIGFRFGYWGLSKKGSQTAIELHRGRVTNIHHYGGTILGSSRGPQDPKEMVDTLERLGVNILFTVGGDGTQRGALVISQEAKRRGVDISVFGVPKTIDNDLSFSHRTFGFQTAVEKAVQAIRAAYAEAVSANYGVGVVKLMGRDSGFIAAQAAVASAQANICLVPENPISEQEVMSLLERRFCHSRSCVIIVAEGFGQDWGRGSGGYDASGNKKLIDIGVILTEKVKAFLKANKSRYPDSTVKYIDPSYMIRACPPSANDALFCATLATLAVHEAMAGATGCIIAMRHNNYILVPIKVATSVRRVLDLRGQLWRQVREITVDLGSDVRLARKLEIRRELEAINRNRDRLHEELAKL
# UniProt P78324, whole entry, looked up: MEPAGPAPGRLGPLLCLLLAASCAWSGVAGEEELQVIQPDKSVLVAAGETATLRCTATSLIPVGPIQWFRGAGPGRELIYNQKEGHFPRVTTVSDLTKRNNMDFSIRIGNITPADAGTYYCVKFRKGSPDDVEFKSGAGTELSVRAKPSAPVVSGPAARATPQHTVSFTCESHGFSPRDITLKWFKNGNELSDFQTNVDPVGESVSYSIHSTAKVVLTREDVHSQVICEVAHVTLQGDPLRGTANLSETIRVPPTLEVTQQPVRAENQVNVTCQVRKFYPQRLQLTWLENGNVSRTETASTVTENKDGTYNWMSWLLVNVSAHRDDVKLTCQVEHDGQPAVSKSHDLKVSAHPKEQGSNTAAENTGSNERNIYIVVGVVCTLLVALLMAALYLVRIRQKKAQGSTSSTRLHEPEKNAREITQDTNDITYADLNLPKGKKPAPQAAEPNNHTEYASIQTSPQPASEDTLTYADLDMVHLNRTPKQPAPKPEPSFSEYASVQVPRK
# UniProt Q08722, whole entry, looked up: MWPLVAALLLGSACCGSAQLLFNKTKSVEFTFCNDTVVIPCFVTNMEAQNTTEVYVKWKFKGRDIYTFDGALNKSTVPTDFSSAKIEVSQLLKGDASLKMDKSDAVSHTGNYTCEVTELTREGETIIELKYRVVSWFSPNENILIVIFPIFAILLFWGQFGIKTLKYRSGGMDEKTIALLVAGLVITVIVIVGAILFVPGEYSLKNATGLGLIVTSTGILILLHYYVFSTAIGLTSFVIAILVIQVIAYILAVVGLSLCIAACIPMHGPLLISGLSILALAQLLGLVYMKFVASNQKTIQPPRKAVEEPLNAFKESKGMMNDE
# UniProt P54132: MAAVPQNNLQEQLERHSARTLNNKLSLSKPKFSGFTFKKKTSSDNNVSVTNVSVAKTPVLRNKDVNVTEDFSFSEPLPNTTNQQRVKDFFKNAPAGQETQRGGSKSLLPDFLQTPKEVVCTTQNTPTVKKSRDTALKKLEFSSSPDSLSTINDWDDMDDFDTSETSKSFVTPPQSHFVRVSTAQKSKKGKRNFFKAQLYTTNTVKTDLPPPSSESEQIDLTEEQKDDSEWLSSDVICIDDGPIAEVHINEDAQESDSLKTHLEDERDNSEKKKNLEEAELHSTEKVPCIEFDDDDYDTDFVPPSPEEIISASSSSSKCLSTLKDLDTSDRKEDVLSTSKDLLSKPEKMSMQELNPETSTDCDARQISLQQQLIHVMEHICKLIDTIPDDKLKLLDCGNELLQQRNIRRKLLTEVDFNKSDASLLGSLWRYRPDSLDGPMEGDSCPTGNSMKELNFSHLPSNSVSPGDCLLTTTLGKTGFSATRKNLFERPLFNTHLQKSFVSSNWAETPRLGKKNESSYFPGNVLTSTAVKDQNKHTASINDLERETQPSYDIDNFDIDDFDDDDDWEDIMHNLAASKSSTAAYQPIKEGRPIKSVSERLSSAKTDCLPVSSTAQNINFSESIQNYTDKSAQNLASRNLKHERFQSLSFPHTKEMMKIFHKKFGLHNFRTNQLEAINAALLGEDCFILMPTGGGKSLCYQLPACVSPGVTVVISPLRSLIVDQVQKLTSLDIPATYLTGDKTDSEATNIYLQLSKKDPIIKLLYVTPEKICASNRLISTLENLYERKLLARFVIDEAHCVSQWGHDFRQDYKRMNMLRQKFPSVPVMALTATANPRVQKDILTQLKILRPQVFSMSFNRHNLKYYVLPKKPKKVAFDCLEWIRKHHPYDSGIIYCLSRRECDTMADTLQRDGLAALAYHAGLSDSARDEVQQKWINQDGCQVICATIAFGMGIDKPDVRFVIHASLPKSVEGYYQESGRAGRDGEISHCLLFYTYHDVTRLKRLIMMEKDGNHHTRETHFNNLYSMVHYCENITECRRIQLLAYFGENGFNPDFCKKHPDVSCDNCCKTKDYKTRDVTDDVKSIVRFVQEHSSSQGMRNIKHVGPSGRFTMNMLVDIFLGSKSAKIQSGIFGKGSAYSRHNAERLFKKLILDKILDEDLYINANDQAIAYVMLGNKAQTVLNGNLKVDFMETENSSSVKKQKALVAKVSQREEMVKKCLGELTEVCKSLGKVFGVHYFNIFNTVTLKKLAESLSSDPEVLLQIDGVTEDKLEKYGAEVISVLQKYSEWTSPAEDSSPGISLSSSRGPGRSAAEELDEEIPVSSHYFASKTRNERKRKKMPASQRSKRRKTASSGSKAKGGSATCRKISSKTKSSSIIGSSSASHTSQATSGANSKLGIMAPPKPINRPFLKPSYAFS
# UniProt P83916, whole entry, looked up: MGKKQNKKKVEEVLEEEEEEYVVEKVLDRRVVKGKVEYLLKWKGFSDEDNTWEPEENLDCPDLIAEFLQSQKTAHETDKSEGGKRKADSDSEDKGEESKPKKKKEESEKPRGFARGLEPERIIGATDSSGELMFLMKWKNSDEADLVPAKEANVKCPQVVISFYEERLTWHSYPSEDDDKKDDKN
# UniProt Q96QE3: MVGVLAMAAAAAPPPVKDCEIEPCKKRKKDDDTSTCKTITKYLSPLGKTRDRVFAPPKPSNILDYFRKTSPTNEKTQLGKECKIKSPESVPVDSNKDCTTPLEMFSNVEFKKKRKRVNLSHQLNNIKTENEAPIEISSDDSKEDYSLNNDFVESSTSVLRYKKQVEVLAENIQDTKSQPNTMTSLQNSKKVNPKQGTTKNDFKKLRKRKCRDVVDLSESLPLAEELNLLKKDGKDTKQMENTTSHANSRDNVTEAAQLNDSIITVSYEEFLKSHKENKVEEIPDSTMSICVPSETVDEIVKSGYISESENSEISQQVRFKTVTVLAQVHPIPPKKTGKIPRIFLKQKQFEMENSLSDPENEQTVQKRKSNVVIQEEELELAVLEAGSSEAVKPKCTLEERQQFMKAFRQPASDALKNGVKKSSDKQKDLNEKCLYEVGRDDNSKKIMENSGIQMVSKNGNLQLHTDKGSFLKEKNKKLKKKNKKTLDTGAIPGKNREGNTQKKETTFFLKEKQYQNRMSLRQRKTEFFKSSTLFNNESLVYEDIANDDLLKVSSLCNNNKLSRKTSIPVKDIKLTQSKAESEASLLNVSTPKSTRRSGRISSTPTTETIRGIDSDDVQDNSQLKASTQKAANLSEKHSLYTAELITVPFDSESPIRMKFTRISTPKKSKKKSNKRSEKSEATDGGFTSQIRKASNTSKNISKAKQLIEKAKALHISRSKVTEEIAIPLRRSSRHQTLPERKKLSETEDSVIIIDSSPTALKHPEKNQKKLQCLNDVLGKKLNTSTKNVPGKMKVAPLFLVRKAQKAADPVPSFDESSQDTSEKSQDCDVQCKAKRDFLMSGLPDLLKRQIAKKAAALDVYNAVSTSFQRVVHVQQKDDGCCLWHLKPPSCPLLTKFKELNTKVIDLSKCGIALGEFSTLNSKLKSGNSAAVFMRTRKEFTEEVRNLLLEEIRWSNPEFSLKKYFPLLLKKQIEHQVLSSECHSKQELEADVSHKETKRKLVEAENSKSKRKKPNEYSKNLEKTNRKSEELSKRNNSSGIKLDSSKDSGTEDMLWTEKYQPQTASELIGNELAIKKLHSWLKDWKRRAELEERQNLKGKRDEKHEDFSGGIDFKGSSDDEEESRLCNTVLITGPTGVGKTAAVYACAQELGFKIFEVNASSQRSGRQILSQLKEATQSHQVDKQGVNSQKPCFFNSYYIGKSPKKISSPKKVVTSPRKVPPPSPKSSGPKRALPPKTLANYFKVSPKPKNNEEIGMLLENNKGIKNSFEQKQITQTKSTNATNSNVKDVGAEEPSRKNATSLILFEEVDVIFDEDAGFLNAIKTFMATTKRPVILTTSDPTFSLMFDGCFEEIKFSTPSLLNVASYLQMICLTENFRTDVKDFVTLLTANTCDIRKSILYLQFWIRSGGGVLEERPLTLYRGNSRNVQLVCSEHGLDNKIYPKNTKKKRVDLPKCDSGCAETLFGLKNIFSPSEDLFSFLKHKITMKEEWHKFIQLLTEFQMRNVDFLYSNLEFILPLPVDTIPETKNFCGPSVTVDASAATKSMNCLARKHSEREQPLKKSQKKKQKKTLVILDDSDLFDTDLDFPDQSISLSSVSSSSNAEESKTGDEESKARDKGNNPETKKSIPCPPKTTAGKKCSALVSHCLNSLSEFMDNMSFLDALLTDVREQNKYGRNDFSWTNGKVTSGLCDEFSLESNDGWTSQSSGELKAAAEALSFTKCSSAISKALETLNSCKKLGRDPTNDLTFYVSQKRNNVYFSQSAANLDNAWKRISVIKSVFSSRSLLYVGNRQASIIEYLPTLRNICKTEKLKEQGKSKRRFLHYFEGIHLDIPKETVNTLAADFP
# UniProt O94782: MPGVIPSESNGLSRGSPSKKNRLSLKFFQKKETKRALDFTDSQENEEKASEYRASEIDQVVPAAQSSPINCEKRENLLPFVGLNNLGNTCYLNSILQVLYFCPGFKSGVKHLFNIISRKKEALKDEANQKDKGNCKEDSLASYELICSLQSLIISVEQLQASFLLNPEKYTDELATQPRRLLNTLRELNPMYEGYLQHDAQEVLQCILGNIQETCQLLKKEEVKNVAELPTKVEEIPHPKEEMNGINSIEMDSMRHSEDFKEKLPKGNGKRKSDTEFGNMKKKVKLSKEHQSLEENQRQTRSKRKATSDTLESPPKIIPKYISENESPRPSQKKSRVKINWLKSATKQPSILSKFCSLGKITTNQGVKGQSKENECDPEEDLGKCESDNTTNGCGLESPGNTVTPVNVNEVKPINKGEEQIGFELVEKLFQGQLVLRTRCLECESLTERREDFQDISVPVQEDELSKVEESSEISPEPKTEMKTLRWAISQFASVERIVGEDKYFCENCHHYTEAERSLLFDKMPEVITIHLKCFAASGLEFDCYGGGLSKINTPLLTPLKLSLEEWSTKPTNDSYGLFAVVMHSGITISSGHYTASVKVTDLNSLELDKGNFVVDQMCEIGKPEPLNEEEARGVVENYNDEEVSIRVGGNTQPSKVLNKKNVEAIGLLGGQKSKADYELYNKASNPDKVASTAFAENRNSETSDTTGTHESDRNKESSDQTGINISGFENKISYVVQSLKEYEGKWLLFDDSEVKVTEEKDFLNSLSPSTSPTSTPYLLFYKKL
# UniProt P15289: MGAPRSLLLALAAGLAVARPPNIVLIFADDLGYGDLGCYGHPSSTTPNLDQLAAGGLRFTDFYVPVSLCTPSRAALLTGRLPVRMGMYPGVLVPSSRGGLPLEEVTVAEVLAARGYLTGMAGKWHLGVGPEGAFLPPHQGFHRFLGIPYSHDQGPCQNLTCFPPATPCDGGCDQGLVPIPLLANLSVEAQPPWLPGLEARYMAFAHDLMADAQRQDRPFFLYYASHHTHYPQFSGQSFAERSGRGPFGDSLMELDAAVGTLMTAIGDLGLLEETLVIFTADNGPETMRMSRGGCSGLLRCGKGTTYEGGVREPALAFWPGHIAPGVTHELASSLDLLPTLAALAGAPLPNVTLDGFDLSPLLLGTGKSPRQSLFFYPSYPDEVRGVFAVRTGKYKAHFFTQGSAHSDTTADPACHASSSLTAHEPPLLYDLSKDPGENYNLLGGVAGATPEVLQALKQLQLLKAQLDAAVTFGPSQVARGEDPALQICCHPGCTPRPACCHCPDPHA
# UniProt Q9BV86: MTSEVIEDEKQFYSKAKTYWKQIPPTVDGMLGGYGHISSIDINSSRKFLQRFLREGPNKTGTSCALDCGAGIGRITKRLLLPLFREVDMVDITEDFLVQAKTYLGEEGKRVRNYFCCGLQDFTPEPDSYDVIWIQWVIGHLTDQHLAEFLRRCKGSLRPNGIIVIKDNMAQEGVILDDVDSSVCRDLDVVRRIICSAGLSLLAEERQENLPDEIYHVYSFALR
# Several values for one entry are separate records, joined by “and”; a condition that tells them apart may be missing. Equal entries are not always repeated. The inconclusive results got no clear call from the source; some entries with a clear call stand among them for comparison. For part of these data: Potencies beside an inconclusive call are fits to weak or partial responses and may not hold up. For part of these data: A note “side channel” means that the fit belongs to a control or component signal, not to the main read-out. Activity calls are given as the source filed them.
# How the values were obtained:
# [1] = molecular target: ATP-dependent 6-phosphofructokinase (Trypanosoma brucei brucei) (UniProt O15648); assay: qHTS Validation Assay to Find Inhibitors of T. brucei phosphofructokinase (AID 485368)
# In short: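 Inhibition derived from concentration-response curves of luminescence, ranked by r2, response size and curve class; the underlying reaction used 1.25 nM PFK, 0.1 mM ATP and 0.5 mM F6P, 45 min, room temperature.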
# [2] = molecular target: Tyrosine-protein phosphatase non-receptor type substrate 1 (Homo sapiens) + Leukocyte surface antigen CD47 (Homo sapiens) (UniProt P78324+Q08722); assay: CD47-SIRPalpha protein protein interaction - HTRF assay qHTS validation (AID 1347058)
# In short: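 Soluble extracellular domains (6His-CD47, Avi-tag-biotinylated SIRPalpha) in PBS pH 7.4 with 0.05% IGEPAL CA-630. Compounds were preincubated 30 min at RT with CD47 and anti-His-Eu, then SIRPalpha and SAV-XL665 were added. TR-FRET 665/615 ratio.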
# [3] = molecular target: Lysine-specific demethylase 5B (Homo sapiens) (UniProt Q9UGL1); assay: Optimization screen for KDM5B Histone Demethylases FDH coupled qHTS against the LOPAC library (AID 1347166); conditions: KDM5B demethylation, FDH-coupled NADH fluorescence; activity, negative = inhibition: at 57.5 µM (top of the series) unless noted
# In short: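 KDM5BDeltaAP (200nM final) in 50mM HEPES pH 7.5, 0.01% Tween-20 was preincubated with compound for 10 min at room temperature. A substrate mix of 12.5uM H3K4Me3, 25uM a-ketoglutarate, ascorbate, Fe2+, NAD+ and formaldehyde dehydrogenase was then added. NADH fluorescence (340/450 nm) was read initially and after 30 min.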
# [4] = qHTS Assay for Identification of Small Molecule Antagonists for NFkB Signaling Pathway (AID 895); conditions: NFkB beta-lactamase reporter cells, FRET ratio 460/530; activity change, negative = inhibition: at 38.3 µM (top of the series) unless noted
# In short: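 ME-180 NFkB-bla cells (beta-lactamase under NFkB response element), plated overnight, treated with compound then 10 pM TNF alpha (about EC50) for 5 hrs at 37 C. LiveBLAzer FRET read at 460/530 nm emission, 405 nm excitation.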
# [5] = qHTS for differential inhibitors of proliferation of Plasmodium falciparum line D10 (AID 1877)
# [6] = qHTS for differential inhibitors of proliferation of Plasmodium falciparum line HB3 (AID 1886); conditions: Potency: Plasmodium falciparum HB3 proliferation inhibition
# [7] = molecular target: RecQ-like DNA helicase BLM (Homo sapiens) (UniProt P54132); assay: qHTS Validation Assay for Inhibitors of Bloom's syndrome helicase (BLM) (AID 2364)
# In short: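 50 nM BLM preincubated 15 min at room temperature with compound in pH 8.0 Tris buffer containing 2.5 ug/ml poly(dI-dC); started with 200 nM TAMRA/BHQ-2 forked duplex and 2 mM ATP (final). Unwinding read as TAMRA fluorescence increase, two reads 2 h apart.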
# [8] = Cytometry Cell-Based qHTS for Inhibitors of the mTORC1 Signaling Pathway in MEF cells (AID 2668)
# In short: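 WT MEFs (Tsc2-/-, p53-/- stably re-expressing WT Tsc2) in DMEM + 10% FBS received compounds 24 hrs after plating, for 24 hrs at 37 degree Celsius. Fixed cells stained with Alexa-488 anti-phospho-rpS6 Ser235/236 and propidium iodide; laser-scanning cytometry read-out.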
# [9] = Quantitative high throughput screen for delayed death inhibitors of the malarial parasite plastid, 96 hour incubation (AID 488745)
# In short: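 Readout is firefly luciferase luminescence from an integrated reporter in P. falciparum; lower signal marks inhibited growth. Cultures at 2% hematocrit and 0.1% parasitemia were treated with compound across two generations (96 h, 37 C, 5% CO2).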
# [10] = molecular target: Chromobox protein homolog 1 (Homo sapiens) (UniProt P83916); assay: qHTS Validation Assay for Inhibitors of HP1-beta Chromodomain Interactions with Methylated Histone Tails (AID 488953)
# In short: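 Disruption of preformed HP1-beta:H3K9me3 peptide complexes (both 50 nM, PBS pH 7.4 with 0.01% Tween-20) is measured by AlphaScreen after 30 min compound exposure at room temperature, using streptavidin donor and nickel chelate acceptor beads at 10 ug/mL final.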
# [11] = molecular target: ATPase family AAA domain-containing protein 5 (Homo sapiens) (UniProt Q96QE3); assay: Validation screen for small molecules that inhibit ELG1-dependent DNA repair in human embryonic kidney (HEK293T) cells expressing luciferase-tagged ELG1 (AID 493107); conditions: HEK293T ELG1-luciferase level, luminescence, 5-fluorouridine co-treatment, 16 h; activity change, negative = decrease: at 46.1 µM (top of the series)
# In short: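 Cells are dispensed in 1536-well format, then 5-fluorouridine and compound are pinned in. After a 16 hr incubation at 37 °C and 5% CO2, ONE-Glo is added and luciferase measured on a CCD imager.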
# [12] = molecular target: Ubiquitin carboxyl-terminal hydrolase 1 (Homo sapiens) (UniProt O94782); assay: Inhibitors of USP1/UAF1: Pilot qHTS (AID 504865)
# In short: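 USP1/UAF1 complex (1nM) preincubated with compound 15 min at room temperature, then Ub-Rho substrate (150nM final) added. Fluorescence read kinetically at 480/540 nm, 6 reads every 60 seconds. Buffer: 50mM HEPES pH 7.8, 0.5mM EDTA, 0.1 mg/ml BSA, 1mM TCEP, 0.01% Tween-20.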
# [13] = molecular target: Arylsulfatase A (Homo sapiens) (UniProt P15289); assay: qHTS screen for enhancers of Arylsulfatase A (ASA1): LOPAC Validation Assay (AID 720538)
# In short: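 SV40-transformed skin fibroblasts from an MLD patient (ASA-I179S) were treated with compounds for 48h at 37 degree C, then lysed with 0.5mM pNCS final substrate for 14h at room temperature; NaOH stop, fluorescence read (Ex=525 nm; Em=598 nm).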
# [14] = molecular target: Endonuclease 4 (Escherichia coli (strain K12)) (UniProt P0A6C1); assay: Counterscreen for APE1 Inhibitors: qHTS Validation Assay for Inhibitors of Endonuclease IV (AID 1708)
# In short: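 Conditions: 2 nM enzyme, 50 nM TAMRA/BHQ-2 substrate, pH 7.5 Tris buffer with 2 mM MgCl2, RT. Compound preincubation 15 min; readout three fluorescence reads 60 s apart, third-minus-first.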
# [15] = qHTS Assay for Identifying Gametocytocidal Compounds (AID 743244); conditions: P. falciparum 3D7 stage III-V gametocytes, alamarBlue, 72 h; max response: stronger effect = lower value
# In short: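 Stage III-V P. falciparum 3D7 gametocytes, 20,000 per well, were exposed to compounds for 72 h at 37C, 5% CO2. AlamarBlue was then added for 24 h and viability was read as fluorescence at Ex 525/Em 598 nm.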
# [16] = molecular target: N-terminal Xaa-Pro-Lys N-methyltransferase 1 (Homo sapiens) (UniProt Q9BV86); assay: qHTS Assay for Inhibitors of N-terminal methyltransferase 1 (NTMT1): LOPAC validation of the NTMT1 SAHH-coupled ThioGlo3 Assay (AID 1347143)
# In short: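 Steps: dispense 125nM NTMT1; pin-transfer test compounds at several concentrations, with 1uM RCC1-6 peptide as control; incubate 1 min; start with reagent holding 100uM SAM, 10uM SAHH, 15uM ThioGlo3; read at 0 and 30 min.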
# [17] = Primary qHTS for small molecule stabilizers of the endoplasmic reticulum resident proteome: Secreted ER Calcium Modulated Protein (SERCaMP) assay (AID 1508630); conditions: SH-SY5Y GLuc-SERCaMP secretion, thapsigargin, luminescence; activity change, negative = inhibition: at 38.4 µM (top of the series)
# In short: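 The SH-SY5Y reporter protocol was run at 3 concentrations up to 38.3 uM (primary) or 11 concentrations (follow-up): 16 h compound, 100 nM thapsigargin for 4 h, then extracellular luciferase luminescence.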
# [18] = qHTS for Inhibitors of the Functional Ribonucleoprotein Complex (vRNP) of Lymphocytic Choriomeningitis Arenaviruses (LCMV): Viability assay - alamar blue signal for LCMV Primary Screen (AID 1347085); conditions: alamar blue viability counter-screen, LCMV vRNP screen cells; activity change, negative = lower viability: at 57.5 µM (top of the series)
compound,measurement,setting,value
NC(=O)CN1CC(O)CC1=O (stereo not drawn),Potency,[1],"inconclusive: 8.49 µM [falling, single point]"
same,Potency,[2],inactive
same,Potency,[3],inactive
O=C(O)c1cc[c]([Hg][Cl])cc1,Potency,[4],inactive
same,Potency,[5],active: 1.12 µM
same,Potency,[6],active: 5.01 µM
same,Potency,[7],"inconclusive: 0.0112 µM [inhibitor, full curve]"
same,Potency,[8],inactive
same,Potency,[1],active: 0.269 µM
same,Potency,[9],active: 2.08 µM
same,Potency,[10],active: 39.8 µM
same,Potency,[11],"inconclusive: 9.2 µM [activator, partial curve, poor fit]"
same,Potency,[12],"inconclusive: 89.1 µM [inhibitor, partial curve, poor fit]"
same,Potency,[13],inactive
same,Potency,[3],"inconclusive: 7.08 µM [inhibitor, full curve, poor fit]"
CC(N)Cc1c[nH]c2ccc(OCc3cccs3)cc12 (stereo not drawn),Potency,[14],"inconclusive: 28.2 µM [inhibitor, partial curve, poor fit]"
same,Potency,[5],"inconclusive: 11.2 µM [inhibitor, partial curve]"
same,Potency,[7],inactive
same,Potency,[8],"inconclusive: 13.1 µM [falling, single point]"
same,Potency,[9],"inconclusive: 11.7 µM [inhibitor, single point]"
same,Potency,[10],"inconclusive: 79.4 µM [inhibitor, partial curve]"
same,Potency,[11],inactive
same,Potency,[13],"inconclusive: 33.8 µM [activator, single point]"
same,Potency,[15],active: 1.41 µM
same,Potency,[16],"inconclusive: 44.7 µM [inhibitor, partial curve]"
same,Potency,[17],"inconclusive: 10 µM [inhibitor, single point] and inconclusive: 28.2 µM [inhibitor, single point]"
NCC(O)c1cc(O)c(O)cc1F (stereo not drawn),Potency,[7],"inconclusive: 6.31 µM [inhibitor, full curve]"
same,Potency,[1],active: 4.78 µM
same,Potency,[10],"inconclusive: 33.6 µM [inhibitor, single point]"
same,Potency,[13],"inconclusive: 37.9 µM [activator, single point]"
same,Potency,[3],"inconclusive: 17.8 µM [inhibitor, partial curve, poor fit]"
same,Potency,[17],"inconclusive: 10 µM [inhibitor, partial curve, poor fit]"
C[C@]12N[C@H](Cc3ccccc31)c1ccccc12,Potency,[4],"inconclusive: 10 µM [inhibitor, single point] and inactive"
same,Potency,[1],"inconclusive: 9.53 µM [activator, partial curve, poor fit]"
same,Potency,[12],inactive
same,Potency,[16],inactive
O=[N+]([O-])c1cc(O)c(O)c([N+](=O)[O-])c1,Potency,[5],inactive
same,Potency,[7],inactive
same,Potency,[1],"inconclusive: 47.8 µM [activator, single point]"
same,Potency,[10],inactive
same,Potency,[11],inactive
same,Potency,[13],active: 19 µM
same,Potency,[2],"inconclusive: 11.7 µM [side channel, falling, partial curve]"
same,Potency,[3],"inconclusive: 28.2 µM [inhibitor, partial curve, poor fit]"
CN1C2CCC1CC(OC(c1ccccc1)c1ccccc1N)C2 (stereo not drawn),Potency,[5],"inconclusive: 12.6 µM [inhibitor, single point]"
same,Potency,[8],"inconclusive: 18.5 µM [falling, single point]"
same,Potency,[1],inactive
same,Potency,[10],"inconclusive: 89.1 µM [inhibitor, single point]"
same,Potency,[13],inactive
same,Potency,[18],inactive
same,Potency,[17],"inconclusive: 5.62 µM [inhibitor, partial curve, poor fit] and inconclusive: 10 µM [inhibitor, partial curve, poor fit]"
CC(=O)NBr,Potency,[4],"inconclusive: 14.1 µM [inhibitor, partial curve]"
same,Potency,[1],inactive
same,Potency,[9],inactive
same,Potency,[11],inactive
same,Potency,[13],"inconclusive: 16.9 µM [activator, partial curve, poor fit]"
same,Potency,[2],inactive
O=C1/C(=C/c2ccccc2)C[C@@]2(O)[C@H]3Cc4ccc(O)c5c4[C@@]2(CCN3CC2CC2)[C@H]1O5,Potency,[2],"inconclusive: 11.7 µM [side channel, falling, partial curve]"
COc1cc(CC(C)N)c(OC)cc1I (stereo not drawn),Potency,[7],inactive
same,Potency,[1],inactive
same,Potency,[10],"inconclusive: 31.6 µM [inhibitor, partial curve]"
same,"activity change, negative = decrease",[11],inconclusive: -33.2% [inhibitor]
same,Potency,[12],inactive

# Random excerpt: 5 records from the list
compound,measurement,setting,value
CC(=O)NBr,Potency,[4],"inconclusive: 14.1 µM [inhibitor, partial curve]"
O=[N+]([O-])c1cc(O)c(O)c([N+](=O)[O-])c1,Potency,[11],inactive
CC(=O)NBr,Potency,[1],inactive
COc1cc(CC(C)N)c(OC)cc1I (stereo not drawn),Potency,[12],inactive
NCC(O)c1cc(O)c(O)cc1F (stereo not drawn),Potency,[17],"inconclusive: 10 µM [inhibitor, partial curve, poor fit]"
